Tests used:
MCF-7 = assay: Antiproliferation test, MCF-7 human breast cancer cells (tamoxifen-sensitive); assay type: cell-based; details: MCF7, 168 h, 7 days, sulforhodamine dye, 5% fetal bovine serum, read-out: TRIPHENYLETHYLENE IC50's AGAINST BREAST CANCER CELLS, IC50, Cell line MCF-7
Method: (§1) Antiproliferation test Procedure:
(§2) The tests were conducted in 96-well microtiter plates. 5×10^3 cells were added to each well. Culture medium and drug solutions were added to wells with a Perkin Elmer Cetus PRO/PETTE. The culture medium was IMEM supplemented with 5% fetal bovine serum. Eight drug concentrations were tested, in duplicate, from 0.078 micromolar (μM) to 10 μM. After four days incubation the medium was replaced with fresh medium containing drug, and after a total of seven days, the cell monolayers were fixed with trichloracetic acid and stained with sulforhodamine dye. Absorbances (492 nm) of the extracted dye solutions were measured with a Titertek Multiscan plate reader.

LY2 = assay: Antiproliferation test, LY-2 human breast cancer cells (MCF-7 variant resistant to tamoxifen); assay type: cell-based; details: MCF7, 168 h, 7 days, sulforhodamine dye, 5% fetal bovine serum, read-out: TRIPHENYLETHYLENE IC50's AGAINST BREAST CANCER CELLS, IC50, Cell line LY2
Method: as §1, §2

CC/C(=C(\c1ccccc1)c1ccc(OCCN(C)C)cc1)c1ccccc1 [TAMOXIFEN]
IC50 (MCF-7): 1.7 µM | IC50 (LY2): 8 µM

Source: US5681863A, “Non-metabolizable clomiphene analogs for treatment of tamoxifen-resistant tumors” (Merrell Pharmaceuticals Inc., priority 1994, dated 1997)
